This is an account of results in US20240368233A1 (University of Washington, published 2024).

The labels stand for the following.
B1: LHD101 chainB (designed binder)
chain: GRQEKVLKSIEETVRKMGVTMETHRSGNEVKVVIKGLHESQQEQLLEDVLRTAEKQGVRVRIRFKGDTVTIVVRE
notes: also called LHD101B
B2: LHD274 chainB (designed binder)
chain: NTHFIVVHGSEEARQRAEEYVRRISKKEGTEVRFEKKDGLLSIEVKNLSEERQREIQEYLQRVQK
B3: 274B53 (designed binder)
chain: NTHFIVVHGSEDAAQLAEELVREISKKEGTEVRFEKKDGLLSIEVKNLSEERQREIQKALQLVQDVANAERVVRERPGSNLAKKALEIILRAAEELAKLDLKASLKAAVRAAEKVVREQPGSNLAKKALEIILRAAEELAKLPDPEALKEAVKAAEKVVREQPGSELAKKALEIIERAAEELKKSPDPEAQKEAKKAEQKVREESGSHHWGSGLNDIFEAQKIEWHEGSHHHHHH
notes: also called LHD274B DHR53 stop

Results are given in words; binding and its absence hold for the method and conditions named. Some results given as binding are weak or reduced against the parent protein; the word gives no strength.

The experiment deals with DFA-GFP. Nature of the experiment: SEC of mixed components; trimer listed in Table 6.
With B1, the binding result was “binds”.

B2: the binding entry is “binds”.

Turning to B3, the binding entry was “binds”.
